Tested on: myrosinase
Assay: Study IV: sulforaphane formation from glucoraphanin in sprout homogenate without mustard seeds
Details: no mustard seeds added

C[S+]([O-])CCCC/C(=N\OS(=O)(=O)O)S[C@@H]1O[C@H](CO)[C@@H](O)[C@H](O)[C@H]1O (some centres unmarked) [glucoraphanin, 4-Methylsulfinylbutyl glucosinolate]
glucoraphanin concentration after incubation (14 days at 20 degrees Celsius): 6.6 g/L
glucoraphanin concentration before incubation: 118.1 g/L

From patent US12708613B2, “Methods for improving physical exercise performance” (NOMIO NUTRITION AB, priority 2020, dated 2026)
